These are yes or no findings as the source states them, for the method shown. In cells and extracts the contact can be indirect. Some results given as binding are weak or reduced against the parent protein; the word gives no strength.
Target: T1, myostatin ligand (human) (UniProt O14793)
T1 sequence: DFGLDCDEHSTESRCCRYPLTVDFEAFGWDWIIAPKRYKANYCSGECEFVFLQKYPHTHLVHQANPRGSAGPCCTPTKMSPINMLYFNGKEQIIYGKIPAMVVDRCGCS
Test: co-elution in SEC fractions 30-31 (66-100 kDa), shown by IRMA, Western blots and acid release in the reporter assay

binding: binds
Substance: myostatin prodomain (from UniProt O14793 24-266)
